Measured values as given in the supplement of paper PMC6411743.
± gives the standard deviation of the averaged measurements. The entries are a selection whose mix differs from that of the whole data set.

Legend:
Assay in all cases: NP40-soluble protein abundance relative to vehicle (solubility fold change) (ratio); higher = more soluble protein in presence of ATP
[1] = target: T1, UniProt Q8N0Y2 and related entries
T1 sequence (whole entry): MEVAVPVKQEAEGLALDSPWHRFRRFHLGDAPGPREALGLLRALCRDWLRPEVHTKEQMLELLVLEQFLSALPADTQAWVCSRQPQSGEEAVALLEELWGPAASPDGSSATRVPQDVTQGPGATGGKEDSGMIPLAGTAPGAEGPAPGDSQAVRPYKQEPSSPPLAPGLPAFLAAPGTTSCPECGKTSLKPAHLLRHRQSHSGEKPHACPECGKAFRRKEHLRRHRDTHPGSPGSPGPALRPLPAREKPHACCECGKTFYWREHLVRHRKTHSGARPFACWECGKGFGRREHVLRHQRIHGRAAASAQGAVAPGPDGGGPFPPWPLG
Summary of the method: (§1)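 Each value is a fold change relative to the detergent-processed vehicle, calculated per replicate from vsn-normalised intensities. Jurkat crude lysate received eight concentrations (0.1 to 10 mM) for 10 min at room temperature and 3 min at 37 °C, then was solubilised in 0.8% NP40 with benzonase (60 min, 4 °C). The ultracentrifuged supernatant was TMT-labelled and run by LC-MS/MS in three independent experiments.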

[2] = target: T2, UniProt Q8N0Z3
T2 sequence (whole entry): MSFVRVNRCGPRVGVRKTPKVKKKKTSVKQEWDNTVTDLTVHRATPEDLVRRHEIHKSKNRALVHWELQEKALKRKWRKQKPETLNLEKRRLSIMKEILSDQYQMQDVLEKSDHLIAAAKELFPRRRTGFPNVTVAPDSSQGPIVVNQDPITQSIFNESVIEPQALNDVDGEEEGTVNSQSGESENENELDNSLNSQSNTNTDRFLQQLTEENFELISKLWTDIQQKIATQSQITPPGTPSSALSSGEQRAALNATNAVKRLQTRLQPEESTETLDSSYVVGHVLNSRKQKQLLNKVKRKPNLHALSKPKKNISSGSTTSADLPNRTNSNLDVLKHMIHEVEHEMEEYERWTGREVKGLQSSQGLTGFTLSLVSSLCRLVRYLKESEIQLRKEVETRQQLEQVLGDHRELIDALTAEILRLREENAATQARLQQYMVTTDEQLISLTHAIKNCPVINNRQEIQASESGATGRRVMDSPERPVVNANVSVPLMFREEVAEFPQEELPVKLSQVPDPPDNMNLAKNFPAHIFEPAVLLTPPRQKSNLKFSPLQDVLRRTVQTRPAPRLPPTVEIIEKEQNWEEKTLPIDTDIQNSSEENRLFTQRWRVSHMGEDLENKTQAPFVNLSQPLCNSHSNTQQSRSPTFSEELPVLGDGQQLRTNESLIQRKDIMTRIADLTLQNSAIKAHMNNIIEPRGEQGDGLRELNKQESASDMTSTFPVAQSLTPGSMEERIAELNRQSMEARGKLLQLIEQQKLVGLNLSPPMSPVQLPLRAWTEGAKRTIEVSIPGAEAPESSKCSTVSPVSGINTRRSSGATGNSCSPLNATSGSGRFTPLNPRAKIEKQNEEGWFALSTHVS
Summary of the method: as §1

[3] = target: T3, UniProt Q8N4Q1 and related entries
T3 sequence (whole entry): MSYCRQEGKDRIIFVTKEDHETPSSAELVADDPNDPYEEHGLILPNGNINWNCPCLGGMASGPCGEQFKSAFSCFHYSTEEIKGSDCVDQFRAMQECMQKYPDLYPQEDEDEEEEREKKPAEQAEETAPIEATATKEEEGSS
Summary of the method: as §1

[4] = target: T4, UniProt Q8N5L8
T4 sequence (whole entry): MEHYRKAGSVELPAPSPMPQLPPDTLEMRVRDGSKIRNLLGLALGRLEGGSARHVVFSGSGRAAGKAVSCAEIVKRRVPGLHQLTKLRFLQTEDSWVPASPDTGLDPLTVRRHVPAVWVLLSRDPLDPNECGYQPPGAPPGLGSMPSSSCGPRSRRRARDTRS
Summary of the method: as §1

[5] = target: T5, UniProt Q8N5Y8 and related entries
T5 sequence (whole entry): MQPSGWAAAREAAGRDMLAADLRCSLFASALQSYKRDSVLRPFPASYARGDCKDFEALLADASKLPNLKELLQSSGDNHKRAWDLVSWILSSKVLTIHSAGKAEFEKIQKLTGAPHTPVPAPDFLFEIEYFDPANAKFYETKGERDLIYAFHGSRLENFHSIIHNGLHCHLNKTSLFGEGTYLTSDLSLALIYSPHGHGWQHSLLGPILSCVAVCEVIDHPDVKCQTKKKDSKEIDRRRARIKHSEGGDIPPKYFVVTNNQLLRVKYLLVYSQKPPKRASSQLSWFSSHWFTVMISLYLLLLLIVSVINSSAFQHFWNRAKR
Summary of the method: as §1

[6] = target: T6, UniProt Q8N8K9 and related entries
T6 sequence (whole entry): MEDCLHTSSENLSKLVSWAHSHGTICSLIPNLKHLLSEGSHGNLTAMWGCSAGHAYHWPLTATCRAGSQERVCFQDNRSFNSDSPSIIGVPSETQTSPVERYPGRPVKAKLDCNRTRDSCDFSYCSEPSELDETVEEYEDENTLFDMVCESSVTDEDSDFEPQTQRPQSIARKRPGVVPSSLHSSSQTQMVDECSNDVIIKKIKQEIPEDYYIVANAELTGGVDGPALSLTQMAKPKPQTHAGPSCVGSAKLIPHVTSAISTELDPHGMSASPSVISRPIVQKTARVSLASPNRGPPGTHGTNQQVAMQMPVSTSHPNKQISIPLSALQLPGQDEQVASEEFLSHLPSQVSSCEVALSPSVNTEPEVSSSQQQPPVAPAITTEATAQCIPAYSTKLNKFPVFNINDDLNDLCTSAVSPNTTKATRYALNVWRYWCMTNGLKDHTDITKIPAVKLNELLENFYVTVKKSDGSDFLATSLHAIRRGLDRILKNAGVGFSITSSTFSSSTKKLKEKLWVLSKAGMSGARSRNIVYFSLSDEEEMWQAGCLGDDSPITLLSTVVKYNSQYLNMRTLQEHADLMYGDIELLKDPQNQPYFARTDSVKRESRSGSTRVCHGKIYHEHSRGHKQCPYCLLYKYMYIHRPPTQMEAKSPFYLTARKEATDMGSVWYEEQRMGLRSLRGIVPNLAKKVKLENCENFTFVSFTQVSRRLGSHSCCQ
Summary of the method: as §1

**Q.** What does the source list for `Nc1ncnc2c1ncn2[C@@H]1O[C@H](COP(=O)(O)OP(=O)(O)OP(=O)(O)O)[C@@H](O)[C@H]1O` [adenosine triphosphate]?
**A.** NP40-soluble protein abundance ([1]; concentration: 6mM): 1.13 ± 0.04; NP40-soluble protein abundance ([1]; concentration: 8mM): 1.04 ± 0.059; NP40-soluble protein abundance ([1]; concentration: 10mM): 1.05 ± 0.055; NP40-soluble protein abundance ([2]; concentration: 1mM): 1.02 ± 0.08; NP40-soluble protein abundance ([2]; concentration: 2mM): 0.991 ± 0.032; NP40-soluble protein abundance ([2]; concentration: 4mM): 1.01 ± 0.061; NP40-soluble protein abundance ([2]; concentration: 6mM): 1.05 ± 0.088; NP40-soluble protein abundance ([2]; concentration: 8mM): 0.984 ± 0.035; NP40-soluble protein abundance ([2]; concentration: 10mM): 1 ± 0.044; NP40-soluble protein abundance ([3]; concentration: 1mM): 1.02 ± 0.15; NP40-soluble protein abundance ([3]; concentration: 2mM): 0.966 ± 0.063; NP40-soluble protein abundance ([3]; concentration: 4mM): 1.01 ± 0.029; NP40-soluble protein abundance ([3]; concentration: 6mM): 1.07 ± 0.15; NP40-soluble protein abundance ([3]; concentration: 8mM): 0.93 ± 0.043; NP40-soluble protein abundance ([3]; concentration: 10mM): 0.892 ± 0.079; NP40-soluble protein abundance ([4]; concentration: 1mM): 0.989 ± 0.082; NP40-soluble protein abundance ([4]; concentration: 2mM): 0.995 ± 0.0069; NP40-soluble protein abundance ([4]; concentration: 4mM): 1.04 ± 0.038; NP40-soluble protein abundance ([4]; concentration: 6mM): 1.03 ± 0.071; NP40-soluble protein abundance ([4]; concentration: 8mM): 1.02 ± 0.048; NP40-soluble protein abundance ([4]; concentration: 10mM): 1.045 ± 0.0075; NP40-soluble protein abundance ([5]; concentration: 1mM): 0.984 ± 0.062; NP40-soluble protein abundance ([5]; concentration: 2mM): 1.02 ± 0.037; NP40-soluble protein abundance ([5]; concentration: 4mM): 0.96 ± 0.025; NP40-soluble protein abundance ([5]; concentration: 6mM): 0.978 ± 0.029; NP40-soluble protein abundance ([5]; concentration: 8mM): 0.981 ± 0.054; NP40-soluble protein abundance ([5]; concentration: 10mM): 0.966 ± 0.013; NP40-soluble protein abundance ([6]; concentration: 1mM): 1.01 ± 0.068; NP40-soluble protein abundance ([6]; concentration: 2mM): 0.996 ± 0.06; NP40-soluble protein abundance ([6]; concentration: 4mM): 1.05 ± 0.088; NP40-soluble protein abundance ([6]; concentration: 6mM): 0.979 ± 0.11
